Measurements from patent publication US6783947B1, “Protecting groups for biological labeling” (Dade Behring Marburg GmbH, priority 1999, dated 2004).
Where a name gives a salt, the structure may show the parent alone.

Assay: LOCI homocysteine assay, two-reagent protocol
Procedure: A 50 μL mixture of hcy-ABA-sensitizer beads (0.1 mg/ml) and 2 mM TCEP and 5 mM CABA-phosphate is added to 5 μL hcy serum calibrator in a reaction cuvette, followed by the addition of 100 μL assay buffer. The mixture is incubated for 417 sec. Then, a 50 μL mixture of Ab-coated acceptor beads (0.5 mg/ml) and alkaline phosphatase (1 mg/ml) is added, followed by 45 μL assay buffer. Following incubation for 157 sec, the sample is read as in the three-reagent standard protocol.
A LOCI homocysteine assay is performed by the automated LOCI Tecan instrument. The reagents and serum samples are kept at 4° C. on this instrument, but the assay buffer and reaction cuvettes are kept at 37° C. The assay is performed at 37° C., and the three-reagent protocol is used, as described herein, while the two-reagent assay protocol is also used in subsequent work with CABA-phosphate as an alternate derivatizing reagent.
An enol phosphate derivative of CABA is synthesized. […] Therefore, it has the potential for a two-component assay. In the two-reagent protocol, reagent-1 (R1) is a mixture of hcy labeled sensitizer beads at 50 μg/ml, 2 mM TCEP, and 5 mM CABA-phosphate in assay buffer; Reagent-2 (R-2) is Ab-coated acceptor beads at 0.1 mg/ml mixed with alkaline phosphatase at 1 mg/ml in assay buffer. In this protocol, 50 μl of R1, 5-10 μl of sample and 50 μl of assay buffer are mixed and incubated for 7 min at 37° C. (step 1), then 50 μl of R2 and 100 μl of assay buffer are added. The reaction mixture is incubated further for 3 minutes. The LOCI reading is performed as described above. The standard curve of hcy serum calibrators using CABA-phosphate as derivatizing agent and the two-reagent protocol is determined (not shown). Over 60% signal modulation is obtained using 2% serum sample.
The same three-reagent protocol used with BABA, as well as with CABA-phosphate as derivatizing agent, is used in this correlation study. Similar results are obtained with either BABA or CABA-phosphate as the derivatizing agent using the three-reagent protocol by LOCI as shown in Table 4-a. […]

Compound: O=C(O)c1ccc(/C(=C/Cl)OP(=O)(O)O)cc1 [CABA-phosphate, 4-(chloroacetyl)benzoate enol-phosphate sodium salt]
- signal modulation, standard curve of hcy serum calibrators (2% serum sample, CABA-phosphate as derivatizing agent): Over 60%
- r value, LOCI vs. HPLC (50 samples (2%)): 0.960
- slope, LOCI vs. HPLC (50 samples (2%)): 1.239
